PubChem BioAssay AID1259308, NCATS, 2017
Here is an unselected part of about 59,000 reagents. About 1,510 of all reagents (2.6%) were called active. 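Calls use total luciferase alone and ignore viability, so some active siRNAs may act by altering cell number.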 Reagents against one gene are numbered here.

Purpose: 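Candidate targets for better recombinant protein yield in mammalian cells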 (primary screen)
Cells: human HEK293 embryonic kidney cells stably expressing firefly luciferase (HEK-CMV-Luc2-Hygro)
Knock-down reagent: single siRNA against human genes, 0.8 pmol siRNA per well
Duration: 72 h
Measured: 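Reporter luminescence and viable-cell signal on separate replicate plates, given as percent of non-targeting control and median/MAD z-scores, plus per-cell luciferase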
Direction: total luciferase, z-score and total luciferase, % of control: higher = more reporter protein produced; luciferase per cell, z-score: higher = more reporter output per viable cell; viable cells, % of control: higher = more viable cells
Active means: 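Active when the median/MAD z-score for overall luciferase is greater than 3; a gene was taken forward for validation with new siRNAs if at least two of its three siRNAs passed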
Calls: active = raised luciferase; inactive = no rise

no.	target	siRNA no.	total luciferase, z-score	total luciferase, % of control	luciferase per cell, z-score	viable cells, % of control	Outcome
1	SPP2	1	0.337	88.6	0.433	88.3	inactive
2	SPP2	2	0.264	87.1	1.52	65.2	inactive
3	SPP2	3	-0.369	74.5	-0.522	95.6	inactive
4	C4orf46	1	0.0745	83.4	0.352	84.9	inactive
5	C4orf46	2	0.428	90.4	-0.324	110	inactive
6	C4orf46	3	0.347	88.8	0.283	92.1	inactive
7	FMR1NB	1	0.516	92.1	0.285	95.5	inactive
8	FMR1NB	2	-2.91	23.9	-4.09	78.6	inactive
9	FMR1NB	3	2.37	129	2.53	74.1	inactive
10	ELF5	1	0.181	85.5	0.58	82	inactive
11	ELF5	2	1.62	114	1.05	96.6	inactive
12	ELF5	3	-0.37	74.5	-0.706	100	inactive
13	PRPS2	1	0.141	84.7	0.612	80.6	inactive
14	PRPS2	2	-0.0554	80.8	-0.526	104	inactive
15	PRPS2	3	-0.606	69.8	-1.18	107	inactive
16	FUT3	1	-1.41	53.8	-1.33	85.4	inactive
17	FUT3	2	-0.218	77.6	-0.375	95.7	inactive
18	FUT3	3	-1.83	45.4	-1.06	67	inactive
19	CPQ	1	1.94	120	1.44	92.2	inactive
20	CPQ	2	-0.147	79	-0.784	108	inactive
21	CPQ	3	0.178	85.4	-0.192	100	inactive
22	JMJD8	1	0.355	89	1.02	76.1	inactive
23	JMJD8	2	4.77	177	3.25	83.9	active
24	JMJD8	3	0.0915	83.7	0.173	89.4	inactive
25	SH3D19	1	0.132	84.5	-0.467	107	inactive
26	SH3D19	2	-1.64	49.3	-0.739	67	inactive
27	SH3D19	3	-0.252	76.9	0.106	83.5	inactive
28	SUN1	1	-0.679	68.4	-1.04	100	inactive
29	SUN1	2	-0.195	78	-0.205	92	inactive
30	SUN1	3	2.07	123	1.92	83	inactive

Records above with an active call:
target	siRNA no.	total luciferase, z-score	total luciferase, % of control	luciferase per cell, z-score	viable cells, % of control	Outcome
JMJD8	2	4.77	177	3.25	83.9	active

The list goes on.
no.	target	siRNA no.	total luciferase, z-score	total luciferase, % of control	luciferase per cell, z-score	viable cells, % of control	Outcome
31	AFG2B	1	-0.136	79.2	-0.517	101	inactive
32	AFG2B	2	-1.75	47.1	-1.57	79.7	inactive
33	AFG2B	3	-1.04	61.3	-0.919	87.2	inactive
34	IRGQ	1	0.417	90.2	3.63	38.8	inactive
35	IRGQ	2	-1.85	45.2	-1.41	73.2	inactive
36	IRGQ	3	-1.53	51.5	-0.29	62.1	inactive
37	TMEM115	1	3.14	144	2.03	94.4	active
38	TMEM115	2	-0.159	78.7	1.63	57.3	inactive
39	TMEM115	3	0.118	84.2	-0.487	107	inactive
40	RETREG2	1	0.584	93.5	-0.195	110	inactive
41	RETREG2	2	0.679	95.4	0.469	94.2	inactive
42	RETREG2	3	1.33	108	0.665	102	inactive
43	GRIN3B	1	-0.559	70.8	-1.09	106	inactive
44	GRIN3B	2	-1.81	45.8	-1.82	82.7	inactive
45	GRIN3B	3	1.5	112	1.38	86.7	inactive
46	FRK	1	-0.594	70.1	0.247	73.4	inactive
47	FRK	2	-0.0931	80	-0.502	102	inactive
48	FRK	3	0.805	97.9	1.14	81.1	inactive
49	DCDC2	1	-1.42	53.6	-1.16	81.1	inactive
50	DCDC2	2	0.126	84.4	0.553	81.5	inactive
51	DCDC2	3	0.249	86.8	0.252	90.8	inactive
52	DIPK1B	1	0.449	90.8	0.716	84	inactive
53	DIPK1B	2	0.677	95.3	0.332	97.6	inactive
54	DIPK1B	3	0.778	97.4	0.186	104	inactive
55	ANKRD33B	1	1.39	110	1.56	81.3	inactive
56	ANKRD33B	2	-1.59	50.3	-0.615	66.1	inactive
57	ANKRD33B	3	2.18	125	2.06	81.5	inactive
58	TRAPPC13P1	1	0.533	92.5	0.368	93.8	inactive
59	TRAPPC13P1	2	0.334	88.5	0.603	84.4	inactive
60	TRAPPC13P1	3	0.81	98	1.12	81.6	inactive
61	CD226	1	1.87	119	0.687	111	inactive
62	CD226	2	-0.268	76.6	-0.678	102	inactive
63	CD226	3	0.499	91.8	-0.0728	105	inactive
64	PRRC2A	1	0.259	87	1.22	70.5	inactive
65	PRRC2A	2	-2.58	30.5	-1.24	47.3	inactive
66	PRRC2A	3	-1.76	46.8	-1.36	74.9	inactive
67	ENPP1	1	1.17	105	0.751	96.5	inactive
68	ENPP1	2	0.507	92	-0.331	112	inactive
69	ENPP1	3	-1.39	54.3	-1.44	88.6	inactive
70	POLG2	1	0.0997	83.9	0.135	90.4	inactive
71	POLG2	2	0.624	94.3	0.159	101	inactive
72	POLG2	3	1.46	111	0.833	99.6	inactive
73	PIK3CA	1	-0.351	74.9	1.46	57	inactive
74	PIK3CA	2	1.6	114	0.728	105	inactive
75	PIK3CA	3	0.455	90.9	0.744	83.5	inactive
